Some results were stated once for a whole list of compounds, not compound by compound.
System: Ki67
Test: Ki67 staining of activated rabbit corneal keratocytes
Assay type: cell-based
Details: for Ki67+ cells: rabbit corneal stroma cells activated with b-FGF (40 ng/ml)+HS (5 μg/ml), two days, 15 mM EP or 1, 2.5 or 5 mM derivatives
Experimental: FIGS. 18A-18B. Rabbit corneal keratocytes were activated with bFGF (40 ng/ml)+HS (5 μg/ml) without EP (FIG. 18A) or with 15 mM EP (FIG. 18B) and after two days the cells were triple stained with anti-Ki67 antibodies (yellow), phalloidin (red, actin filaments) and DAPI (blue, nucleus).
As described in Example 1, corneal stromal cells were isolated from rabbit corneas and cultured using the same procedures. The keratocytes in serum free media were treated with b-FGF (40 ng/ml)+HS (5 μg/ml) with or without 15 mM EP or 1, 2.5 or 5 mM following EP derivatives: 2-oxopropionic acid 3-methoxyphenyl ester, 2-oxopropionic acid 2-ethoxyethyl ester, 2-oxopropionic acid 2-chloroethyl ester, 2-oxopropionic acid isopropyl ester, 2-oxopropionic acid butyl ester, 2-oxopropionic acid p-tolyl ester, 2-oxopropionic acid tert-butyl ester. Two days following the treatments, the cells were fixed and stained for Ki67 (a nuclear antigen expressed during the G1/S or S phase of the cell cycle) as described supra. The relative levels of the expression of specific proteins were analyzed by Western blot analyses of the cell lysates as described supra.

SMILES	cells expressing Ki67 (corneal stromal cells activated with b-FGF or TGF-β1)	Ki67+ cells
CCOC(=O)C(C)=O [ethyl pyruvate]	less than 1%	less than 1%
CC(=O)C(=O)OCCCl [2-oxopropionic acid 2-chloroethyl ester]		less than 1%
CC(=O)C(=O)Oc1ccc(C)cc1 [2-oxopropionic acid p-tolyl ester]		less than 1%

— US8815946B2, “Inhibition of proliferation and fibrotic response of activated corneal stromal cells” (University of Pittsburgh—of the Commonwealth System of …, priority 2008, dated 2014)
